Laboratory results: PubChem BioAssay AID743121 (NCATS, 2013)

- Test: 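Knock-downs that sensitise breast cancer cells to camptothecin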 (primary screen)
- Cell system: MDA-MB-231 cells, a human breast cancer line
- Knock-down reagent: single siRNA against human genes, 20 nM siRNA (0.8 pmol per well)
- Duration: 120 h (drug added 48 h after transfection, read 72 h later)
- Conditions: camptothecin 20 nM (about EC30) for 72 h; vehicle 0.1% DMSO in parallel plates
- Measured: 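Cell viability by ATP luminescence (CellTiter-Glo) as % of non-targeting siRNA wells, and the log2 ratio of viability without drug over viability with camptothecin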
- Reading the numbers: log2 vehicle/camptothecin viability: higher = stronger sensitisation to camptothecin
- Rule for the call: 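Active genes have an RSA gene-level p-value below 0.001, computed from the ratios of their separate siRNAs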
This is an unselected part of about 26,000 reagents tested. 167 of all reagents (0.63%) count as active. 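Calls are per gene from RSA p-values that are not deposited; an individual active-marked siRNA can sensitise only weakly.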 Not all columns of the deposit are shown.

gene | PubChem SID | log2 vehicle/camptothecin viability | outcome
OR1A1 | SID164397290 | -0.0353 | inactive
OR1A1 | SID164397292 | 0.157 | inactive
OR1A1 | SID164397296 | -0.0296 | inactive
OR1A1 | SID164397297 | -0.0676 | inactive
CHAT | SID164358181 | 0.142 | inactive
CHAT | SID164358184 | -0.408 | inactive
CHAT | SID164358185 | -0.953 | inactive
CYP11B1 | SID164360836 | 0.485 | inactive
CYP11B1 | SID164360837 | -0.185 | inactive
CYP11B1 | SID164360838 | -0.354 | inactive
CYP11B1 | SID164360839 | -0.248 | inactive
MDM2 | SID164375156 | 0.242 | inactive
MDM2 | SID164375159 | -0.145 | inactive
MDM2 | SID164375160 | -0.0483 | inactive
MDM2 | SID164375164 | -0.507 | inactive
BPIFB3 | SID164660947 | -0.0135 | inactive
BPIFB3 | SID164660948 | -0.576 | inactive
BPIFB3 | SID164660949 | -0.138 | inactive
BPIFB3 | SID164660950 | -0.348 | inactive
METAP1D | SID164605390 | 0.177 | inactive
METAP1D | SID164605391 | -0.224 | inactive
METAP1D | SID164605392 | -0.223 | inactive
METAP1D | SID164605396 | -0.162 | inactive
P2RY2 | SID164379216 | -0.231 | inactive
P2RY2 | SID164379217 | -0.359 | inactive
P2RY2 | SID164379218 | 0.579 | inactive
P2RY2 | SID164379220 | -0.177 | inactive

Records listed so far whose gene name begins with B or b:
gene | PubChem SID | log2 vehicle/camptothecin viability | outcome
BPIFB3 | SID164660947 | -0.0135 | inactive
BPIFB3 | SID164660948 | -0.576 | inactive
BPIFB3 | SID164660949 | -0.138 | inactive
BPIFB3 | SID164660950 | -0.348 | inactive

The listing continues.
gene | PubChem SID | log2 vehicle/camptothecin viability | outcome
JUP | SID164372243 | -0.237 | inactive
JUP | SID164372244 | -0.103 | inactive
JUP | SID164372246 | -0.432 | inactive
JUP | SID164372248 | -0.283 | inactive
DRD5 | SID164362141 | 0.116 | inactive
DRD5 | SID164362142 | -0.553 | inactive
DRD5 | SID164362145 | -0.136 | inactive
DRD5 | SID164362149 | 0.692 | inactive
MBD4 | SID164400823 | -0.165 | inactive
MBD4 | SID164400824 | 0.716 | inactive
MBD4 | SID164400826 | 0.409 | inactive
GLP1R | SID164366751 | 0.417 | inactive
GLP1R | SID164366755 | -0.309 | inactive
GLP1R | SID164366756 | -0.533 | inactive
GLP1R | SID164366758 | -0.154 | inactive
RNF14 | SID164404806 | -0.161 | inactive
RNF14 | SID164404807 | -0.2 | inactive
RNF14 | SID164404808 | -0.128 | inactive
RNF14 | SID164404810 | -0.221 | inactive
SH3GL1 | SID164387885 | 0.0321 | inactive
SH3GL1 | SID164387887 | -0.211 | inactive
SH3GL1 | SID164387888 | -0.222 | inactive
SH3GL1 | SID164387890 | -0.341 | inactive
NOG | SID164402607 | -0.407 | inactive
NOG | SID164402608 | -0.0926 | inactive
NOG | SID164402609 | -0.0576 | inactive
NOG | SID164402610 | -0.213 | inactive
PILRA | SID164468967 | -0.253 | inactive
PILRA | SID164468969 | -0.0974 | inactive
PILRA | SID164468970 | 0.241 | inactive
PILRA | SID164468974 | -0.243 | inactive
LAMTOR3 | SID164398965 | -0.411 | inactive
LAMTOR3 | SID164398966 | -0.454 | inactive
LAMTOR3 | SID164398969 | -0.19 | inactive
LAMTOR3 | SID164398974 | -0.204 | inactive
KCNJ4 | SID164372448 | -0.0532 | inactive
KCNJ4 | SID164372449 | -0.261 | inactive
KCNJ4 | SID164372452 | 0.576 | inactive
KCNJ4 | SID164372453 | -0.18 | inactive
RAB40C | SID164496317 | -0.446 | inactive
RAB40C | SID164496318 | 0.0283 | inactive
RAB40C | SID164496321 | 0.754 | inactive
RAB40C | SID164496322 | -0.415 | inactive
